According to the supplement of paper PMC10849652:
Some of the results follow.

Chains of the proteins cited; added tags and fusions are not shown. Lines headed by an entry give the natural chain unless they say otherwise; changes in a name come on top.
UniProt Q16537, whole entry, looked up: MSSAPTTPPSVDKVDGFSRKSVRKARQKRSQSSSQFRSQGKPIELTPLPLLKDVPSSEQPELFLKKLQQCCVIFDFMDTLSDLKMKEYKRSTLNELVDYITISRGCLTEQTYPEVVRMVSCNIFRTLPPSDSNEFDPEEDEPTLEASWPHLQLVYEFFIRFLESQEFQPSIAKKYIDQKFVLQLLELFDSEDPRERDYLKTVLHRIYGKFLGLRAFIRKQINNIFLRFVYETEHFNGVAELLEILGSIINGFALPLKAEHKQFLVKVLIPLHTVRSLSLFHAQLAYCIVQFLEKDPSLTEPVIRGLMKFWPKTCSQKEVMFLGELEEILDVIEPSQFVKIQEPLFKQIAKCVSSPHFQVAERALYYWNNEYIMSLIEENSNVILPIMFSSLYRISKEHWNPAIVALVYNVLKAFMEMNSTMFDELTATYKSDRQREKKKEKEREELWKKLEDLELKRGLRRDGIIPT
UniProt Q6PFW1: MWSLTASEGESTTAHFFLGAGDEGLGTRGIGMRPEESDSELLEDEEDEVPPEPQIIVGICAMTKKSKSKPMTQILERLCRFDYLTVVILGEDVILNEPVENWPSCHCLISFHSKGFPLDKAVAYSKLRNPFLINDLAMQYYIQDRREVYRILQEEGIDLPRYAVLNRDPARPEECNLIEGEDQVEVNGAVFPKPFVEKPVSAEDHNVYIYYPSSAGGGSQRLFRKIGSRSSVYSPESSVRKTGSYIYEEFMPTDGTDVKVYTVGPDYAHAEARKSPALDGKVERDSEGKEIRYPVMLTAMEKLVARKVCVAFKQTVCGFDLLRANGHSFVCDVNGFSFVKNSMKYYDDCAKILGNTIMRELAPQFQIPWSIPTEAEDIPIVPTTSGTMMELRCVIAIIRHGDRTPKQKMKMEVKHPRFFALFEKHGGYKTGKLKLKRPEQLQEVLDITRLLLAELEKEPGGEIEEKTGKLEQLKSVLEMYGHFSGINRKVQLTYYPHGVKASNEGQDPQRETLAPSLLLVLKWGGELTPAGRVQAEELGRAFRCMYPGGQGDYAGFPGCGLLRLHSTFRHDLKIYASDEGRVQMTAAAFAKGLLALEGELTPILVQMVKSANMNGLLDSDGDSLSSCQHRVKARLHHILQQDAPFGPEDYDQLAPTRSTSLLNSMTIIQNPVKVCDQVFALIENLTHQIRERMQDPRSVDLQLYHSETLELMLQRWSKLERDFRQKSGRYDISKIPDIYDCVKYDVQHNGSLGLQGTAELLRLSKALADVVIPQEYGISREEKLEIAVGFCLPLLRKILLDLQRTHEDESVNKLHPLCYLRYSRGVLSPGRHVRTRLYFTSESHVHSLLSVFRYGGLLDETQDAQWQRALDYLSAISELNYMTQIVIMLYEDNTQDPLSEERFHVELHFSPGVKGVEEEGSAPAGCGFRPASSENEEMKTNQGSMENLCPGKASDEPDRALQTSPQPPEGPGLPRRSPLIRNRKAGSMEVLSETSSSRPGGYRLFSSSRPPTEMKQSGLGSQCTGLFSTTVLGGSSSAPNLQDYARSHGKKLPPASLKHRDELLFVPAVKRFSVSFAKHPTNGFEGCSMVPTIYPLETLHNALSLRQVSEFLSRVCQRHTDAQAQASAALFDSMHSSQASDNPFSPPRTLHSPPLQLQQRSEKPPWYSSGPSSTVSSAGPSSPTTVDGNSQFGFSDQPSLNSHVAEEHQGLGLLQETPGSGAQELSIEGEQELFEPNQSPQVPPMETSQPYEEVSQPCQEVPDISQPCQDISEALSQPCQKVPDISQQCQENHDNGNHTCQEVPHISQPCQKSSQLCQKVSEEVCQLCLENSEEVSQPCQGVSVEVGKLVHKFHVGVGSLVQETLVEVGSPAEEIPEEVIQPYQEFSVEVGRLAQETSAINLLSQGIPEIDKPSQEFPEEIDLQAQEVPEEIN
UniProt P78395, whole entry, looked up: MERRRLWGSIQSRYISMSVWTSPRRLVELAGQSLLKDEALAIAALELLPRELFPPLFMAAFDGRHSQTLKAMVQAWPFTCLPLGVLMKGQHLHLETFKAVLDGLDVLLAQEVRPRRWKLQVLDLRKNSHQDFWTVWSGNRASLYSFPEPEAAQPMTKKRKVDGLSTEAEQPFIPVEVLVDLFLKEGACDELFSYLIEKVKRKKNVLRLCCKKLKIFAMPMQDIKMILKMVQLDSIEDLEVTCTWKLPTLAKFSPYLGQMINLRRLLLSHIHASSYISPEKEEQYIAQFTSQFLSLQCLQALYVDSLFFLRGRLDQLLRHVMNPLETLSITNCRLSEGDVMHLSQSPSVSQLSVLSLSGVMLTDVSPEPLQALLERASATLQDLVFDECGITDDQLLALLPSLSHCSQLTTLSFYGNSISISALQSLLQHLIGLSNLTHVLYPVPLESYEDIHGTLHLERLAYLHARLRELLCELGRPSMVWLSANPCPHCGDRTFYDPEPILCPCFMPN
UniProt Q9UMR5: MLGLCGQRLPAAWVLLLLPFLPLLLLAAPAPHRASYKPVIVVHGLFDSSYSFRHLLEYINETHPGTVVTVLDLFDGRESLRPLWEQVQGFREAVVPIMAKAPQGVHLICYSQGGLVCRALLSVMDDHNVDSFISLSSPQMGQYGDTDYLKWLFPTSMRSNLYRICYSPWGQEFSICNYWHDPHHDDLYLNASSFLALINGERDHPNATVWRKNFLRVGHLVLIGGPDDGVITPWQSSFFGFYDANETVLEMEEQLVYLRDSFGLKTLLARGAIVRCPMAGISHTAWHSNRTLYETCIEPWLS
UniProt O60927: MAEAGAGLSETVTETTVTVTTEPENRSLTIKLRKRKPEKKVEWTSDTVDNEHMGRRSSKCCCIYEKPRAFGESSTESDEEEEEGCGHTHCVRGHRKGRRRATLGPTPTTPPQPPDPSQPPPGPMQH
UniProt O60828: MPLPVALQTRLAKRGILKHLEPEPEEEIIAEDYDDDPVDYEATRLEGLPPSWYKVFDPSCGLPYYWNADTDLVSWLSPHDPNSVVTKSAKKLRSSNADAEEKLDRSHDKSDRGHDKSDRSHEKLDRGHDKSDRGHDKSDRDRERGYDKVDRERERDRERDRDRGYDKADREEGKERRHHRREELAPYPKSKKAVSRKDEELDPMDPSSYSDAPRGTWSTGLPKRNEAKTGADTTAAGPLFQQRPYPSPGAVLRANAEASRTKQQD
UniProt P41236: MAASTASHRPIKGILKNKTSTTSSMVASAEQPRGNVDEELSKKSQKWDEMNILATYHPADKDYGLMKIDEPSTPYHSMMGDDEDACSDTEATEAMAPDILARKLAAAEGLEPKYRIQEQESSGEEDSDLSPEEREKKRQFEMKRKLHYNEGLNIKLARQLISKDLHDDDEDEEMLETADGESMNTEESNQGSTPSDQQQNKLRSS
UniProt P60510: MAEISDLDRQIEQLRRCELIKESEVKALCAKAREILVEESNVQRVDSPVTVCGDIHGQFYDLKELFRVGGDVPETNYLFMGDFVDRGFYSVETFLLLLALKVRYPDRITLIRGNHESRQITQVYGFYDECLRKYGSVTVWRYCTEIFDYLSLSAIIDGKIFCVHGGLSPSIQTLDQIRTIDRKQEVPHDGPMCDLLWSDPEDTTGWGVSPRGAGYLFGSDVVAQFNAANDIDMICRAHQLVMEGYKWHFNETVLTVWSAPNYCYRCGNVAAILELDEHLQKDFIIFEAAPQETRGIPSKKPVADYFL
UniProt Q86XN7: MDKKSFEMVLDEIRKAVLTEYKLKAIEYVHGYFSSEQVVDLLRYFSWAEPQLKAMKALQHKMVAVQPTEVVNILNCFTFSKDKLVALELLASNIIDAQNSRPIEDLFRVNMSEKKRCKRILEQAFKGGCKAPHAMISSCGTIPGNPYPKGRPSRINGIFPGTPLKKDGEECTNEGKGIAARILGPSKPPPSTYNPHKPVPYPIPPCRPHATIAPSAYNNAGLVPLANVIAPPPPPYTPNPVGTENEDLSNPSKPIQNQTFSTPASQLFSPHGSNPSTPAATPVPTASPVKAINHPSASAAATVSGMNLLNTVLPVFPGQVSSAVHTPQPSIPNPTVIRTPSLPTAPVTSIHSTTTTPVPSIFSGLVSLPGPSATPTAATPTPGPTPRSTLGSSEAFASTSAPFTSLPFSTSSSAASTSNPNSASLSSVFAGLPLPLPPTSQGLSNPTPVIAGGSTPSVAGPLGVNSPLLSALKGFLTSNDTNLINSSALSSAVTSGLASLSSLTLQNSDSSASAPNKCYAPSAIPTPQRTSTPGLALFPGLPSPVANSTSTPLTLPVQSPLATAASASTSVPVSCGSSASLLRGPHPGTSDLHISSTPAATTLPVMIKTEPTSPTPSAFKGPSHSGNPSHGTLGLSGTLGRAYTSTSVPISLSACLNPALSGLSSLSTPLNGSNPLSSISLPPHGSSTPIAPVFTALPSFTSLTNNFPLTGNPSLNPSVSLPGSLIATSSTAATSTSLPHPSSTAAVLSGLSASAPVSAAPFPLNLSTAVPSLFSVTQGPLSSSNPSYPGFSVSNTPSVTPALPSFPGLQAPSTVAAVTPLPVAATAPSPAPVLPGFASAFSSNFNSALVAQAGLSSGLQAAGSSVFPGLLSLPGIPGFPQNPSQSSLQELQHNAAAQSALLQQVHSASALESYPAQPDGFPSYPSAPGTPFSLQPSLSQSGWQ
UniProt Q5H9R7: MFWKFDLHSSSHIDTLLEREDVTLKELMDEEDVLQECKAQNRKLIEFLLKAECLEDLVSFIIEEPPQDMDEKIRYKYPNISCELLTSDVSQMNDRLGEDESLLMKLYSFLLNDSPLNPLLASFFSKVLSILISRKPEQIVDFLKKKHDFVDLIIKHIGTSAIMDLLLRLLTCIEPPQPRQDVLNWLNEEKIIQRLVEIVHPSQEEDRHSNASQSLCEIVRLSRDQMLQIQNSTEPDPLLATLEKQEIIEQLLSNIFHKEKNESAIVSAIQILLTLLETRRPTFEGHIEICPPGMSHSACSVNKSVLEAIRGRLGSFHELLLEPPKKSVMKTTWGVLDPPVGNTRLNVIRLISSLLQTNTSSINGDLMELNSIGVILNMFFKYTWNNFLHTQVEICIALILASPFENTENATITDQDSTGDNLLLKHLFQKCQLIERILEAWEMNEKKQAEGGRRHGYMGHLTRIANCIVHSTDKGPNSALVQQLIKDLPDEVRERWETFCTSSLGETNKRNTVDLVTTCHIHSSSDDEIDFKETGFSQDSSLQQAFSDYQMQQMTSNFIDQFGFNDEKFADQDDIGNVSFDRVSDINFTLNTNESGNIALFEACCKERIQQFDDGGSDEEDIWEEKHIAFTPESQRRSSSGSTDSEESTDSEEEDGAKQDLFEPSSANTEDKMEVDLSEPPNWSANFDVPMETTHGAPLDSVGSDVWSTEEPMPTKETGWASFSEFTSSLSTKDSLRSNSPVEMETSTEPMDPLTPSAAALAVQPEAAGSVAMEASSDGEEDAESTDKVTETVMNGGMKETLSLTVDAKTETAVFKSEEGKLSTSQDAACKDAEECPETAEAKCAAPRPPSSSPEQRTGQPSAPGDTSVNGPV
UniProt Q9BSG0: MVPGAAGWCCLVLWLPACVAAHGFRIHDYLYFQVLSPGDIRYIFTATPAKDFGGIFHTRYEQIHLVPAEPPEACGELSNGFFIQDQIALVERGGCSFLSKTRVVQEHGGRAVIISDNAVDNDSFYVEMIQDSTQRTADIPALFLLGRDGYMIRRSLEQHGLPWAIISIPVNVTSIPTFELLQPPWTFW
UniProt P63151: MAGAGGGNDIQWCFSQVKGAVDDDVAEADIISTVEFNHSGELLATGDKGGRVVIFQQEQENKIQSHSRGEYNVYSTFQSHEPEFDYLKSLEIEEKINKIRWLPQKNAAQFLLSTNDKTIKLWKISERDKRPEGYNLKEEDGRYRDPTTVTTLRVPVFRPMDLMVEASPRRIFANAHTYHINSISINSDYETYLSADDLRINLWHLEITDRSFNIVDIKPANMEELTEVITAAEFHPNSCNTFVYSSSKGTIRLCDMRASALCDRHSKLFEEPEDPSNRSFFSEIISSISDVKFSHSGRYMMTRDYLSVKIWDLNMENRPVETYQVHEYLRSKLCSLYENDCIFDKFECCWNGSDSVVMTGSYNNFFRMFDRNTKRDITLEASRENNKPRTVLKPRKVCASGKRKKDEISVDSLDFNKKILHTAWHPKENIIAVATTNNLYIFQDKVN
UniProt P14314: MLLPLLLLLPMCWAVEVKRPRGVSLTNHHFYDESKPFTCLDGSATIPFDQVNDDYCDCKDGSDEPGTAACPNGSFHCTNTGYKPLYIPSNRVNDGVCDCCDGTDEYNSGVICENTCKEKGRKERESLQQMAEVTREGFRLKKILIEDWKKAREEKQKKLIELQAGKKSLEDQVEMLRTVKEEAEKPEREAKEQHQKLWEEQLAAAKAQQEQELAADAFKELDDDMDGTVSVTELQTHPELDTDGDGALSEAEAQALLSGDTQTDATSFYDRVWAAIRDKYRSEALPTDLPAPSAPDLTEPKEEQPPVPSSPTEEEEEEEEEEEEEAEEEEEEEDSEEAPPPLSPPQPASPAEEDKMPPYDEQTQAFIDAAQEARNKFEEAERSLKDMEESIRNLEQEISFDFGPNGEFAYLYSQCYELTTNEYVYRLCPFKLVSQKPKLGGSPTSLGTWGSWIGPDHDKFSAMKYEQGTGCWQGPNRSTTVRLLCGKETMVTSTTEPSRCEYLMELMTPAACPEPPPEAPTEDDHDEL

Assays:
Assay in all cases: log2 fold change, soluble protein after heating vs DMSO (PISA); higher = thermal stabilisation; K562 lysate, 10 uM; active = over 0.2 and 3.5 SD of the protein, either way, in both replicates (recomputed)
alvocidib = compound: CN1CC[C@H](c2c(O)cc(O)c3c(=O)cc(-c4ccccc4Cl)oc23)[C@H](O)C1 [alvocidib]
Procedure, shortened: (§1)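 Soluble protein was defined as the supernatant remaining after 21,000xg for 90 min, following pooling of heated aliquots and adjustment to 0.5% NP-40 at 4°C. Before that, crude K562 extract at 1 mg/mL protein in PBS pH 7.4 with 1 mM MgCl2 was treated with 10 μM compound for 30 min and heated for 3 min across 48°C-58°C. Quantification used TMTpro 16plex LC-MS/MS with channel sums equalised, and values are log-two fold changes in thermal stability relative to solvent controls from duplicates.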

Tubastatin A = compound: CN1CCc2c(c3ccccc3n2Cc2ccc(C(=O)NO)cc2)C1 [Tubastatin A]
Procedure, shortened: as §1

[1] = compound: CNC(=O)C1=CC=CC=C1NC2=NC(=NC=C2Cl)NC3=C(C=C(C=C3)N4CCOCC4)OC
Procedure, shortened: as §1

defactinib = compound: CNC(=O)c1ccc(Nc2ncc(C(F)(F)F)c(NCc3nccnc3N(C)S(C)(=O)=O)n2)cc1 [defactinib]
Procedure, shortened: as §1

[2] = compound: CNc1nc(-c2ccc3c(N)n[nH]c3c2)cc(N2C[C@@H](C(=O)NC3CCCCC3)CC[C@H]2C)n1
Procedure, shortened: as §1

encorafenib = compound: COC(=O)N[C@@H](C)CNc1nccc(-c2cn(C(C)C)nc2-c2cc(Cl)cc(NS(C)(=O)=O)c2F)n1 [encorafenib]
Procedure, shortened: as §1

[3] = compound: COC(=O)[C@H](CCSC)NC(=O)C1=C(C=C(C=C1)NC[C@H](CS)N)C2=CC=CC=C2
Procedure, shortened: as §1

alisertib = compound: COc1cc(Nc2ncc3c(n2)-c2ccc(Cl)cc2C(c2c(F)cccc2OC)=NC3)ccc1C(=O)O [alisertib]
Procedure, shortened: as §1

[4] = compound: COc1cc2nc(-c3cc(F)ccc3O)nc(N[C@@H]3CNC[C@H]3C(C)(C)O)c2cc1OC
Procedure, shortened: as §1

gefitinib = compound: COc1cc2ncnc(Nc3ccc(F)c(Cl)c3)c2cc1OCCCN1CCOCC1 [gefitinib]
Procedure, shortened: as §1

lapatinib = compound: CS(=O)(=O)CCNCc1ccc(-c2ccc3ncnc(Nc4ccc(OCc5cccc(F)c5)c(Cl)c4)c3c2)o1 [lapatinib]
Procedure, shortened: as §1

pictilisib = compound: CS(=O)(=O)N1CCN(Cc2cc3nc(-c4cccc5[nH]ncc45)nc(N4CCOCC4)c3s2)CC1 [pictilisib]
Procedure, shortened: as §1

crizotinib = compound: C[C@@H](Oc1cc(-c2cnn(C3CCNCC3)c2)cnc1N)c1c(Cl)ccc(F)c1Cl [crizotinib]
Procedure, shortened: as §1

[5] = compound: C[C@H](C1=CC=C(C=C1)C(=O)NC2=C3C=CNC3=NC=C2)N
Procedure, shortened: as §1

duvelisib = compound: C[C@H](Nc1ncnc2nc[nH]c12)c1cc2cccc(Cl)c2c(=O)n1-c1ccccc1 [duvelisib]
Procedure, shortened: as §1

gandotinib = compound: Cc1cc(Nc2cc(CN3CCOCC3)c3nc(C)c(Cc4ccc(Cl)cc4F)n3n2)n[nH]1 [gandotinib]
Procedure, shortened: as §1

tozasertib = compound: Cc1cc(Nc2cc(N3CCN(C)CC3)nc(Sc3ccc(NC(=O)C4CC4)cc3)n2)n[nH]1 [tozasertib]
Procedure, shortened: as §1

doramapimod = compound: Cc1ccc(-n2nc(C(C)(C)C)cc2NC(=O)Nc2ccc(OCCN3CCOCC3)c3ccccc23)cc1 [doramapimod]
Procedure, shortened: as §1

bafetinib = compound: Cc1ccc(NC(=O)c2ccc(CN3CC[C@H](N(C)C)C3)c(C(F)(F)F)c2)cc1Nc1nccc(-c2cncnc2)n1 [bafetinib]
Procedure, shortened: as §1

[6] = compound: Cc1cccc(CC(=O)N2CCc3c2ccc(-c2cn(C)c4ncnc(N)c24)c3F)n1
Procedure, shortened: as §1

Target	log2 fold change (alvocidib)	log2 fold change (Tubastatin A)	log2 fold change [1]	log2 fold change (defactinib)	log2 fold change [2]	log2 fold change (encorafenib)	log2 fold change [3]	log2 fold change (alisertib)	log2 fold change [4]	log2 fold change (gefitinib)	log2 fold change (lapatinib)	log2 fold change (pictilisib)	log2 fold change (crizotinib)	log2 fold change [5]	log2 fold change (duvelisib)	log2 fold change (gandotinib)	log2 fold change (tozasertib)	log2 fold change (doramapimod)	log2 fold change (bafetinib)	log2 fold change [6]
PPP2R5E (UniProt Q16537)	inactive: 0.029	inactive: 0.024	inactive: 0.07	inactive: -0.028	inactive: 0.024	inactive: 0.007	inactive: 0.043	inactive: 0.015	inactive: 0.01	inactive: -0.036	inactive: -0.015	inactive: 0.062	inactive: -0.068	inactive: 0	inactive: 0.014	inactive: -0.047	inactive: -0.026	inactive: -0.061	inactive: -0.08	inactive: 0.008
PPIP5K1 (UniProt Q6PFW1)	inactive: -0.001	inactive: -0.059	inactive: -0.021	inactive: 0.031	inactive: -0.021	inactive: 0.029	inactive: 0.053	inactive: 0.011	inactive: -0.04	inactive: 0.006	inactive: 0.003	inactive: -0.038	inactive: -0.01	inactive: 0.04	inactive: 0.091	inactive: -0.053	inactive: -0.013	inactive: 0.009	inactive: -0.08	inactive: 0.067
PPP6R1 (UniProt Q9UPN7)	inactive: -0.003	inactive: -0.055	inactive: 0.054	inactive: 0.004	inactive: 0.022	inactive: 0.03	inactive: -0.071	inactive: -0.004	inactive: -0.013	inactive: 0.006	inactive: 0.013	inactive: -0.007	inactive: -0.06	inactive: -0.025	inactive: 0.004	inactive: -0.002	inactive: -0.025	inactive: -0.016	inactive: -0.022	inactive: 0.008
PRAME (UniProt P78395)	inactive: 0.034	inactive: -0.111	inactive: 0.024	inactive: 0.006	inactive: -0.006	inactive: -0.001	inactive: 0.13	inactive: 0.014	inactive: 0.009	inactive: -0.007	inactive: -0.012	inactive: -0.008	inactive: -0.08	inactive: -0.015	inactive: 0.005	inactive: -0.037	inactive: -0.013	inactive: 0.007	inactive: -0.062	inactive: 0.056
PRPF38B (UniProt Q5VTL8)	inactive: -0.008	inactive: 0.026	inactive: 0.051	inactive: 0.013	inactive: -0.01	inactive: 0.005	inactive: -0.049	inactive: 0.006	inactive: -0.003	inactive: -0.014	inactive: -0.006	inactive: -0.013	inactive: -0.004	inactive: -0.048	inactive: 0.035	inactive: -0.039	inactive: 0.028	inactive: -0.032	inactive: -0.005	inactive: 0.005
PPT2 isoform 3 (UniProt Q9UMR5)	inactive: -0.051	inactive: 0.014	inactive: -0.005	inactive: -0.067	inactive: 0	inactive: -0.014	inactive: 0.059	inactive: 0.013	inactive: 0.015	inactive: 0.031	inactive: -0.053	inactive: -0.032	inactive: 0.035	inactive: 0.058	inactive: 0.06	inactive: 0.016	inactive: 0.004	inactive: 0	inactive: 0.005	inactive: -0.05
PRKRA (UniProt O75569)	inactive: 0.024	inactive: -0.254	inactive: 0.028	inactive: 0.02	inactive: -0.009	inactive: -0.001	inactive: 0.146	inactive: -0.019	inactive: -0.004	inactive: -0.006	inactive: 0.01	inactive: -0.003	inactive: -0.021	inactive: -0.017	inactive: 0	inactive: -0.094	inactive: -0.005	inactive: -0.01	inactive: -0.003	inactive: 0.032
PPP1R11 (UniProt O60927)	inactive: 0.048	inactive: 0.077	inactive: 0.011		inactive: -0.001	inactive: 0.051	inactive: -0.027	inactive: -0.081	inactive: -0.041	inactive: -0.09	inactive: 0.01	inactive: -0.016	inactive: -0.069	inactive: 0.153	inactive: -0.054	inactive: -0.048	inactive: 0.022	inactive: -0.022	inactive: 0.099	inactive: -0.071
PQBP1 (UniProt O60828)	inactive: -0.017	inactive: 0.057	inactive: 0.004	inactive: -0.002	inactive: 0.069	inactive: 0.027	inactive: -0.086	inactive: 0.007	inactive: -0.008	inactive: 0.02	inactive: 0.023	inactive: 0.036	inactive: 0.03	inactive: -0.023	inactive: 0.012	inactive: 0.101	inactive: -0.018	inactive: 0.013	inactive: -0.02	inactive: 0.012
PPP1R2 (UniProt P41236)	inactive: 0.034	inactive: 0.063	inactive: 0.001	inactive: -0.032	inactive: -0.05	inactive: -0.072	inactive: -0.039	inactive: -0.036	inactive: 0.003	inactive: -0.038	inactive: -0.039	inactive: 0.03	inactive: -0.006	inactive: -0.014	inactive: 0.069	inactive: 0.044	inactive: -0.033	inactive: -0.056	inactive: 0.015	inactive: -0.058
PPP4C (UniProt P60510)	inactive: 0.021	inactive: 0.072	inactive: 0.013	inactive: -0.03	inactive: 0.057	inactive: 0.027	inactive: -0.106	inactive: 0.015	inactive: 0.002	inactive: -0.005	inactive: -0.024	inactive: -0.026	inactive: -0.016	inactive: 0.076	inactive: -0.03	inactive: -0.056	inactive: 0.017	inactive: 0.045	inactive: -0.071	inactive: -0.046
PROSER1 (UniProt Q86XN7)	inactive: -0.177	inactive: -0.162	inactive: -0.287	inactive: 0.132	inactive: -0.182			inactive: 0.037	inactive: -0.044	inactive: -0.004	inactive: 0.111	inactive: -0.077		inactive: 0.101	inactive: 0.118	inactive: -0.372			inactive: 0.013	inactive: -0.026
PPP6R3 isoform 2 (UniProt Q5H9R7)	inactive: -0.108	inactive: 0.102	inactive: -0.03					inactive: 0.108		inactive: 0.126				inactive: -0.041		inactive: 0.022				inactive: -0.02
PRDX6 (UniProt P30041)	inactive: 0.012	inactive: 0.037	inactive: 0.01	inactive: -0.014	inactive: 0.031	inactive: -0.014	inactive: -0.063	inactive: 0.009	inactive: 0.004	inactive: -0.035	inactive: -0.018	inactive: 0	inactive: 0.012	inactive: 0.044	inactive: 0.013	inactive: -0.025	inactive: 0.019	inactive: -0.017	inactive: 0.027	inactive: -0.038
PRADC1 (UniProt Q9BSG0)	inactive: -0.141	inactive: 0.04	inactive: -0.126		inactive: 0.059			inactive: 0.109	inactive: 0.212	inactive: -0.071	inactive: -0.088	inactive: 0.091	inactive: 0.075	inactive: 0.166	inactive: -0.069	inactive: -0.002		inactive: -0.041	inactive: -0.149	inactive: -0.087
PPP2R2A isoform 2 (UniProt P63151)	inactive: -0.021	inactive: 0.067	inactive: 0	inactive: -0.049	inactive: -0.017	inactive: -0.005	inactive: -0.037	inactive: 0.012	inactive: 0.028	inactive: -0.002	inactive: -0.034	inactive: -0.003	inactive: 0.019	inactive: -0.06	inactive: 0.003	inactive: 0.034	inactive: -0.009	inactive: 0.004	inactive: -0.014	inactive: 0.03
PRKCSH isoform 2 (UniProt P14314)	inactive: -0.124	inactive: 0.002	inactive: -0.078	inactive: -0.011	inactive: -0.05	inactive: 0.039	inactive: -0.013	inactive: -0.079	inactive: -0.042	inactive: 0.092	inactive: 0.132	inactive: 0.072	inactive: -0.016	active: -0.622	inactive: 0.174	inactive: 0.293	inactive: 0.092	inactive: 0.136	inactive: 0.055	inactive: 0.24

In another format: results already given
Target | log2 fold change (alvocidib) | log2 fold change (Tubastatin A) | log2 fold change [1] | log2 fold change (defactinib) | log2 fold change [2] | log2 fold change (encorafenib) | log2 fold change [3] | log2 fold change (alisertib) | log2 fold change [4] | log2 fold change (gefitinib) | log2 fold change (lapatinib) | log2 fold change (pictilisib) | log2 fold change (crizotinib) | log2 fold change [5] | log2 fold change (duvelisib) | log2 fold change (gandotinib) | log2 fold change (tozasertib) | log2 fold change (doramapimod) | log2 fold change (bafetinib) | log2 fold change [6]
PPP1R11 (UniProt O60927) | inactive: 0.048 | inactive: 0.077 | inactive: 0.011 |  | inactive: -0.001 | inactive: 0.051 | inactive: -0.027 | inactive: -0.081 | inactive: -0.041 | inactive: -0.09 | inactive: 0.01 | inactive: -0.016 | inactive: -0.069 | inactive: 0.153 | inactive: -0.054 | inactive: -0.048 | inactive: 0.022 | inactive: -0.022 | inactive: 0.099 | inactive: -0.071
PQBP1 (UniProt O60828) | inactive: -0.017 | inactive: 0.057 | inactive: 0.004 | inactive: -0.002 | inactive: 0.069 | inactive: 0.027 | inactive: -0.086 | inactive: 0.007 | inactive: -0.008 | inactive: 0.02 | inactive: 0.023 | inactive: 0.036 | inactive: 0.03 | inactive: -0.023 | inactive: 0.012 | inactive: 0.101 | inactive: -0.018 | inactive: 0.013 | inactive: -0.02 | inactive: 0.012
